Test results as given in patent publication CN115433275A.
Positions count from the first letter of the chain named. No constants are given. Whether binding was seen depends on the method and setting. Some results given as binding are weak or reduced against the parent protein; the word gives no strength. One block for each binder: values may come before it.

By UniProt entry, the sequences of proteins in these tests, tags left out. Residues count along the entry.
UniProt Q969D9, residues 29-159: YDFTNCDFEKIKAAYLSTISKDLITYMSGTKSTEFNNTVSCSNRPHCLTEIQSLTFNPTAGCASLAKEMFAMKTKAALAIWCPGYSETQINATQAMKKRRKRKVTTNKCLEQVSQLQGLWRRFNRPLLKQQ

Tests used:
[1] = target: QP1005 (human TSLP-his) (human) (UniProt Q969D9); assay: SPR (Biacore S200), antibody captured on Protein A chip, QP1005 in flow
[2] = target: QP1328 (人TSLP的FC融合) (human) (UniProt Q969D9); assay: ELISA, QP1328 coated, anti-Fab HRP detection
[3] = target: QP1005 (human TSLP-his) (human) (UniProt Q969D9); assay: SPR (Biacore 8K), antibody captured on Protein A chip, QP1005 in flow
[4] = target: QP313 (食蟹猴TSLP的FC融合) (cynomolgus monkey); assay: ELISA, QP313 coated, anti-Fab HRP detection
[5] = target: QP313 (食蟹猴TSLP的FC融合) (cynomolgus monkey); assay: ELISA, hybridoma supernatant on cynomolgus TSLP
[6] = target: QP1328 (人TSLP的FC融合) (human) (UniProt Q969D9); assay: ELISA, hybridoma supernatant on human TSLP
[7] = target: QP313 (食蟹猴TSLP的FC融合) (cynomolgus monkey); assay: ELISA (legend of Figure 3)
[8] = target: QP1328 (人TSLP的FC融合) (human) (UniProt Q969D9); assay: ELISA (legend of Figure 1)

binding [1]: binds
B1: 人源化的抗TSLP抗体QP420422 (antibody, human IgG1, V domains shown)
VH: QVQLVQSGAEVKKPGASVKVSCKASGYTFTSYWMHWVKQAPGQGLEWIGVIDPSDTYTTYNQKFKGKATLTVDTSTSTAYMELSSLRSEDTAVYYCTRSLDGFFDYWGQGTLVTVSS
VL: DIQMTQSPSSLSASVGDRVTITCRASENIYSYLAWYQQKPGKSPKLLVYFAKTLAAGVPSRFSGSGSGTDFTLTISSLQPEDFATYYCQHHYDTPWTFGQGTKVEIK

binding [2]: binds
binding [3]: binds
binding [4]: binds
B2: 抗TSLP抗体QP04203625 (antibody, IgG1, V domains shown)
VH: B1 VH
VL: B1 VL with K52R, T53R, L54P

binding [2]: binds
binding [3]: binds
binding [4]: binds
B3: 抗TSLP抗体QP36110422 (antibody, IgG1, V domains shown)
VH: B1 VH with S54Y, T56A, Y57D, K63R
VL: B1 VL

binding [2]: binds
binding [3]: binds
binding [4]: binds
B4: 抗TSLP抗体QP36160422 (antibody, IgG1, V domains shown)
VH: B1 VH with S54Y, Y57D
VL: B1 VL

binding [5]: binds
binding [6]: binds
B5: mab177A12 (antibody, V domains shown)
VH: QVQLQQPGAELVKPGASVKMSCKASGYTFTSYWMHWVKQRPGQGLEWIGVIDPSDTYTTYNQKFKGKATLTVDTSSSTAYMQLSSLTSEDSAVYYCTRSLDGFFDYWGQGTTLTVSS
VL: DIQMTQSPASLSASVGETVSITCRASENIYSYLAWYQQKQGKSPQLLVYFAKTLAAGVPSRFSGSGSGTQFSLKINSLQPEDFGNYYCQHHYDTPWTFGGGTKLEIK

binding [7]: binds
binding [2]: binds
binding [4]: binds
binding [8]: binds
binding [1]: binds
B6: 嵌合抗体QP378379 (antibody, human IgG1, kappa, V domains shown)
VH: B5 VH
VL: DIQMTQSPASLSASVGETVSITCRASENIYSYLAWYQQKQGKSPQLLVYFAKTLAAGVPSRFSGSGSGTQFSLKINSLQPEDFGNYYCQHHYDTPWTFGGGTKLEIKR
